Our source for the binding values is paper PMC10183829, “Shuffled ATG8 interacting motifs form an ancestral bridge between UFMylation and autophagy” (The EMBO Journal, 2023).

Protein sequences, listed by entry. Tags and fused reporters are not part of them. Lines headed by an entry give the natural chain unless they say otherwise; changes in a name come on top. Residues count along the entry.
UniProt O95166: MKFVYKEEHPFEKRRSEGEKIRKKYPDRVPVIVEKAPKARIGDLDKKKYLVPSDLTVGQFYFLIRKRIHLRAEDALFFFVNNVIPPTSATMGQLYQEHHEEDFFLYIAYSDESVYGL
GABARAP (purified): residues 3-116 of O95166
UniProt P61960: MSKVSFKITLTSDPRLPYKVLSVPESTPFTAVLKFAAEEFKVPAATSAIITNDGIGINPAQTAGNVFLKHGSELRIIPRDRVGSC

Results are given in words; binding and its absence hold for the method and conditions named. For some assays here: In cells and extracts the contact can be indirect. Some results given as binding are weak or reduced against the parent protein; the word gives no strength. For some assays here: Where a sequence is shown, tags or fusion partners need not be part of it.

The target in assay [1] is GABARAP (purified) (human) (UniProt O95166). Kind of assay: NMR titration; unlabeled protein or peptide (50-300 μM) added to 100 μM 15N-labeled protein; 1H-15N HSQC, 25°C, 50 mM sodium phosphate pH 7.0, 100 mM NaCl, 10% D2O; both purified.
In a further assay the target is GST-GABARAP (human) (UniProt O95166). Kind of assay: pull-down; as a1, with the cAIM peptide added as competitor (200 μM final in Fig 3B).
Assay [2] concerns the target GABARAP (purified) (human) (UniProt O95166). Kind of assay: ITC; 25°C, 50 mM sodium phosphate pH 7.0, 100 mM NaCl; GABARAP or HsUFM1 in the cell, HsC53 variant in the syringe; global analysis with a hetero-association model A + B; both purified. A general note: In ITC the heat of successive injections is recorded.
Another assay has as its target GST-HsUFM1 (human) (UniProt P61960). Kind of assay: microscopy-based on-bead protein-protein interaction assay; both purified.
For assay [3], the target named is T1, ATG8A (purified) (Arabidopsis thaliana) (UniProt Q8LEM4).
T1 sequence: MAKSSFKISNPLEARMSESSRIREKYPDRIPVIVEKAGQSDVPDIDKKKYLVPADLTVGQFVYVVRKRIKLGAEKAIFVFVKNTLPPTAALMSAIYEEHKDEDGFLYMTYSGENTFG
The experiment in a line: NMR titration; unlabeled protein or peptide (50-300 μM) added to 100 μM 15N-labeled protein; 1H-15N HSQC, 25°C, 50 mM sodium phosphate pH 7.0, 100 mM NaCl, 10% D2O; both purified.

B1: HsC53 IDR (263-316) (domain or fragment, UniProt Q96JB5 263-316)
chain: AEDAIDWGDFGVEAVSEGTDSGISAEAAGIDWGIFPESDSKDPGGDGIDWGDDA
Take B1: the binding entry in assay [1] is “binds”.

B2: MBP-HsC53 (protein, UniProt Q96JB5 1-506)
chain: MEDHQHVPIDIQTSKLLDWLVDRRHCSLKWQSLVLTIREKINAAIQDMPESEEIAQLLSGSYIHYFHCLRILDLLKGTEASTKNIFGRYSSQRMKDWQEIIALYEKDNTYLVELSSLLVRNVNYEIPSLKKQIAKCQQLQQEYSRKEEECQAGAAEMREQFYHSCKQYGITGENVRGELLALVKDLPSQLAEIGAAAQQSLGEAIDVYQASVGFVCESPTEQVLPMLRFVQKRGNSTVYEWRTGTEPSVVERPHLEELPEQVAEDAIDWGDFGVEAVSEGTDSGISAEAAGIDWGIFPESDSKDPGGDGIDWGDDAVALQITVLEAGTQAPEGVARGPDALTLLEYTETRNQFLDELMELEIFLAQRAVELSEEADVLSVSQFQLAPAILQGQTKEKMVTMVSVLEDLIGKLTSLQLQHLFMILASPRYVDRVTEFLQQKLKQSQLLALKKELMVQKQQEALEEQAALEPKLDLLLEKTKELQKLIEADISKRYSGRPVNLMGTSL
Take B2: in the assay with GST-GABARAP (human), the binding result is listed as “binds”.

B3: HsC53 wt (purified) (protein, UniProt Q96JB5 1-506)
chain: B2 chain
With B3, the binding entry in assay [2] is recorded as “binds”.

B4: AtUBA5 LIR peptide (peptide)
peptide: GPLHDDNEWNISVVDD
With B4, the binding result (with GST-HsUFM1 (human); in assay [3]) was “binds” each time.
